Measurements: PubChem BioAssay AID1688 (National Center for Advancing Translational Sciences (NCATS), 2009)
The campaign covered roughly 220,000 compounds. About 2,400 (1.1%) were called active. Inconclusive means that the source gave no clear call. Such entries were picked first, then a sample of the others. Calls follow the shape of the dose curve; as a rule, active = well fitted inhibition curve with a large enough effect; inconclusive = small, poorly fitted or top-dose-only effect, or effect the other way; inactive = no such curve, though single readings can be large or run the other way. Potencies of inconclusive entries are doubtful fits and often do not repeat.

Assay: qHTS Multiplex Assay to Identify Dual Action Probes in a Cell Model of Huntington: Aggregate Formation (GFP); also: nearly all actives have a fitted effect of over 60% in size
Conditions: PC12 HttQ103-GFP aggregates, Acumen cytometry, 40 h; activity change, negative = inhibition: at 46.1 µM (top of the series) unless noted
Procedure, shortened: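 Using laser scanning cytometry, GFP-positive aggregates were counted after lysis of PC12 cells induced with 100 nM tebufenozide to express HTT exon 1 Q103–GFP. Compounds were tested in titration.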
% is scaled to controls: 0 for no effect and ±100 for the full control effect; potency is read from the fitted curve at half-maximal effect.

| SMILES | Potency | activity change, negative = inhibition |
| --- | --- | --- |
| CCOP(=O)(OCC)c1nc(-c2cccc3ccccc23)oc1NCc1ccc(OC)cc1 | inconclusive: 35.5 µM [inhibitor, single point] |  |
| N#Cc1ccc(C(=O)Nc2nnc(-c3ccco3)o2)cc1 | inconclusive: 15.8 µM [inhibitor, single point] |  |
| c1ccc(-c2csc3ncn4cnnc4c23)cc1 | inconclusive: 35.5 µM [inhibitor, single point] |  |
| COCCN(Cc1cc2cc3c(cc2nc1Cl)OCO3)C(=O)Nc1ccc(F)cc1 | inconclusive: 22.4 µM [inhibitor, single point] |  |
| Nc1ncc2c(n1)-c1cc(Cl)ccc1SC2 | inconclusive: 31.6 µM [inhibitor, partial curve] |  |
| CCCCSc1nnc(-c2ccc(C)cc2)c2ccccc12 | active: 11.2 µM |  |
| N#CC1=C(C2CC2)CC(c2ccccc2)C(C#N)=C1N (stereo not drawn) |  | inactive: 14% |
| CC1(C)CC(=O)C(C=NCCN2CCN(CCCCS(=O)(=O)O)CC2)=C(O)C1 |  | inactive: 5.65% |
| Nc1ccc(Sc2nnnn2-c2ccccc2)c(Cl)c1 |  | inactive: 1.41% |
| c1ccc(CNc2ncnc3c2cnn3Cc2ccccc2)cc1 | active: 22.4 µM |  |
| Cc1ccn2c(Nc3ccccc3)c(-c3ccccn3)nc2c1 | inconclusive: 12.6 µM [inhibitor, partial curve] |  |
| N#CC1=C(SCC(=O)NC23CC4CC(CC(C4)C2)C3)NC(=O)C(C#N)C12CCCCC2 (stereo not drawn) | active: 3.55 µM |  |
| O=C(CSC1CCCCC1)Nc1nccs1 | inconclusive: 1.26 µM [inhibitor, single point] |  |
| Cc1c(C#N)c(N)nc2c3c(sc12)NC(=O)CC3c1ccccc1 (stereo not drawn) | inconclusive: 2.51 µM [activator, full curve, poor fit] |  |
| CN1/C(=C\C(=O)c2cccs2)Sc2ccccc21 | active: 15.8 µM |  |
| Nc1ccnc(C(F)(F)F)c1C(=O)c1ccccc1 | inconclusive: 28.2 µM [inhibitor, single point] |  |
| Cc1ccc(C(=O)NC(=S)N2CCN(c3ccccc3F)CC2)cc1 | inconclusive: 35.5 µM [inhibitor, single point] |  |
| Cc1nn(-c2ccccc2)c2sc(C(=O)C(C#N)c3ccccn3)cc12 (stereo not drawn) |  | inactive: -22.6% |
| CCOc1ccc(N2C(=O)CSC2c2ccncc2)cc1 (stereo not drawn) |  | inactive: 13.8% |
| CCNc1nc(C)c2cc(Br)c(=O)n(CC)c2n1 | inconclusive: 6.31 µM [inhibitor, partial curve] |  |
| COCCNc1nc(-c2ccc(OC)cc2)c(-c2ccc(OC)cc2)s1 | inconclusive: 14.1 µM [inhibitor, single point] |  |
| Cc1cc(C)n(-c2ccc3cccc(NS(C)(=O)=O)c3n2)n1 | active: 8.91 µM |  |
| Cc1ccc(Sc2cnn(-c3ccccc3)c(=O)c2Cl)cc1 |  | inactive: -12% |
| CCOC(=O)C1C(=O)C=C(/C=C/c2ccccc2)CC1c1ccc(Cl)cc1 (stereo not drawn) | inconclusive: 25.1 µM [inhibitor, single point] |  |
| Cc1ccc(CNCC(O)(c2ccccc2)c2ccc(Cl)cc2)cc1 (stereo not drawn) | inconclusive: 35.5 µM [inhibitor, single point] |  |

Nothing new here: entries from further up.

| SMILES | Potency | activity change, negative = inhibition |
| --- | --- | --- |
| CCOc1ccc(N2C(=O)CSC2c2ccncc2)cc1 (stereo not drawn) |  | inactive: 13.8% |
| CCNc1nc(C)c2cc(Br)c(=O)n(CC)c2n1 | inconclusive: 6.31 µM [inhibitor, partial curve] |  |

Going on with the list.

| SMILES | Potency | activity change, negative = inhibition |
| --- | --- | --- |
| Cc1ccc2c(c1)N(C(C)C(=O)NCc1cccs1)C(=O)CO2 (stereo not drawn) | inconclusive: 11.2 µM [inhibitor, partial curve] |  |
| Cc1cccc2sc(N(CCCN(C)C)C(=O)c3nc4ccccc4s3)nc12 |  | inactive: -2.62% |
| Cc1cc(=O)[nH]c(SCC(=O)N2CCN(C(c3ccccc3)c3ccccc3)CC2)n1 | inconclusive: 5.62 µM [inhibitor, single point] |  |
| CCC(=C(c1ccc(OC)cc1)c1ccc(OC)cc1)c1cn(CC(O)CN2CCN(C)CC2)c2ccccc12 (stereo not drawn) | active: 15.8 µM |  |
| N#CCSc1nc2ccc(N3CCOCC3)cc2c(=O)n1CCc1ccccc1 | inconclusive: 35.5 µM [inhibitor, single point] |  |
| O=C(Nc1cccc(-c2nc3cccnc3s2)c1)c1ccco1 | active: 15.8 µM |  |
| CC(CC(=O)O)CC(=O)NNC(=O)c1cccc(Br)c1 (stereo not drawn) | inconclusive: 0.355 µM [activator, full curve, poor fit] |  |
| COc1ccccc1C(=O)COC(=O)c1ccccc1O | inconclusive: 1.12 µM [activator, full curve, poor fit] |  |
| CC1CN(CCCCOc2ccc(F)cc2)CC(C)O1 (stereo not drawn) | inconclusive: 12.6 µM [activator, partial curve, poor fit] |  |
| CCOc1ccc2nc(NC3=NC(c4ccc(OC)cc4)CC(=O)N3)nc(C)c2c1 (stereo not drawn) | inconclusive: 31.6 µM [inhibitor, single point] |  |
| COc1ccc(CN(C)CC(=O)Nc2ccccc2-c2ccccc2)c(OC)c1 | active: 20 µM |  |
| Cn1c(=O)c2c(nc(NCc3ccco3)n2CCc2ccccc2)n(C)c1=O | active: 12.6 µM |  |
| CN1CCN(CCNC(=O)c2cc3c(=O)n(C)c4ccccc4c3n2C)CC1 | inconclusive: 3.16 µM [activator, single point] |  |
| O=c1[nH]nc(CNc2ccc(C(F)(F)F)cc2)c2ccccc12 |  | inactive: -3.82% |
| CN(Cc1ccccc1)c1ncnc2ccc(Br)cc12 | active: 0.355 µM |  |
| O=C(CSc1nnc(-c2cccs2)n1-c1ccccc1)N1CCCC1 |  | inactive: -2.09% |
| COC(=O)Cn1c(C)nc([N+](=O)[O-])c1Br | inconclusive: 22.4 µM [inhibitor, single point] |  |
| CC(C)COC(=O)N1CCCC1C(=O)Nc1nccs1 (stereo not drawn) | inconclusive: 3.55 µM [activator, single point] |  |
| O=C(/C(=N\Nc1ccccc1)Sc1nnnn1-c1ccccc1)c1ccccc1 |  | inactive: -0.905% |
| CN1CCN(CCCNC(=O)c2ccc(/C=C3\Sc4ccccc4N(Cc4ccccc4F)C3=O)cc2)CC1 | inconclusive: 35.5 µM [inhibitor, single point] |  |
| CCCn1c(=O)c(Cc2ccccc2)c(O)c2ccccc21 |  | inactive: -1.79% |
| CCS(=O)(=O)c1ccc(-c2csc(-c3ccccc3Cl)n2)c(Cl)c1Cl | inconclusive: 15.8 µM [inhibitor, partial curve, poor fit] |  |
| COc1ccc(Cn2cc([N+](=O)[O-])nc2C)cc1[N+](=O)[O-] |  | inactive: 8.64% [at 9.22 µM] |
| O=C(CSc1nnc(SCc2ccccc2)s1)N/N=C/c1c[nH]c2ccccc12 |  | inactive: 10.5% |
| O=C1[C@@H]2Cc3c([nH]c4ccccc34)[C@@H](c3ccccc3)N2C(=O)[C@@H]2Cc3c([nH]c4ccccc34)[C@@H](c3ccccc3)N12 | inconclusive: 12.6 µM [inhibitor, single point] |  |

| SMILES | Potency | activity change, negative = inhibition |
| --- | --- | --- |
| CCC(=O)/C=C1\Sc2ccc(OC)cc2N1CC | inconclusive: 28.2 µM [inhibitor, single point] |  |
| CC(=O)OCCN(C)c1cc(SC(C)C)c2nonc2c1[N+](=O)[O-] | inconclusive: 22.4 µM [activator, partial curve] |  |
| O=c1c2c(nc3n1CCCCC3)-c1ccccc1CC21CCCC1 | inconclusive: 20 µM [inhibitor, single point] |  |
| CCN(CC)C(=O)CSc1nc2c(sc(=S)n2Cc2ccco2)c(=O)n1-c1ccccc1 |  | inactive: -1.27% |
| CCOc1cc(N2CCOCC2)c(OCC)cc1NC(=O)COc1ncnc2ccccc12 | inconclusive: 1.26 µM [inhibitor, single point] |  |
| COc1ccc(NC(=O)C2CCC(N3C(=O)C4C5C=CC(C5)C4C3=O)CC2)cc1 (stereo not drawn) | inconclusive: 0.891 µM [activator, full curve, poor fit] |  |
| CCn1cc(C2C3=C(CC(C)(C)CC3=O)N(c3ccccc3)C3=C2C(=O)CC(C)(C)C3)c(C)n1 | inconclusive: 1.26 µM [inhibitor, single point] |  |
| CCOC(=O)c1cccc(NC(=O)CSc2nnc(COc3ccccc3)n2CC)c1 |  | inactive: 6.21% |
| COc1ccccc1N=c1oc2cc(O)ccc2cc1C(N)=O | inconclusive: 11.2 µM [inhibitor, partial curve] |  |
| CC(CCc1ccccc1)NC(=S)NC1CCCCC1 (stereo not drawn) | inconclusive: 31.6 µM [inhibitor, single point] |  |
| CC(C)CCOc1ccc(C(CC(N)=O)C(=O)O)cc1 (stereo not drawn) | inconclusive: 3.55 µM [inhibitor, single point] |  |
| CCCCSc1nc2c(cc1C#N)CCC2 |  | inactive: 0.274% |
| COc1ccc(Nc2ncccc2C(=O)O)cc1 | inconclusive: 3.55 µM [inhibitor, single point] |  |
| CCOC(=O)C1CCCCN1Cc1cccc(OC)c1OC (stereo not drawn) |  | inactive: 2.09% |
| CCN(c1ccccc1)S(=O)(=O)c1ccc(OC)c(NC(=O)c2cccs2)c1 | inconclusive: 22.4 µM [inhibitor, single point] |  |
| Cc1nn(Cc2ccccc2)c2sc(C(=O)N3CCN(Cc4ccc5c(c4)OCO5)CC3)cc12 | inconclusive: 22.4 µM [inhibitor, single point] |  |
| COc1ccccc1Nc1nc(Cl)c(C=O)s1 |  | inactive: -0.655% |
| O=[N+]([O-])c1ccc(/C=N/N/C(=N/c2ccccn2)c2ccccn2)cc1 | inconclusive: 35.5 µM [activator, partial curve] |  |
| CCN1C(=O)c2cccc3c(S(=O)(=O)NCCc4c[nH]c5ccccc45)ccc1c23 |  | inactive: 24.4% |
| S=C(Nc1ccc(Oc2ccccc2)cc1)NC1CCCCCC1 | inconclusive: 17.8 µM [inhibitor, single point] |  |
| Cc1nn(C(C)C(=O)NC2C(=O)N3C(C(=O)O)=C(CSc4nnnn4C)CSC23)cc1Cl (stereo not drawn) | inconclusive: 7.94 µM [activator, partial curve] |  |
| COC(=O)c1c(-c2ccccc2)c[nH]c1C | active: 22.4 µM |  |
| COc1ccccc1-c1cc(C(F)(F)F)nc(S(=O)(=O)CCCC(=O)NCc2ccc(F)cc2)n1 | inconclusive: 35.5 µM [inhibitor, single point] |  |

Structures listed so far with a CF3 group, in the order listed:

| SMILES | Potency | activity change, negative = inhibition |
| --- | --- | --- |
| Nc1ccnc(C(F)(F)F)c1C(=O)c1ccccc1 | inconclusive: 28.2 µM [inhibitor, single point] |  |
| O=c1[nH]nc(CNc2ccc(C(F)(F)F)cc2)c2ccccc12 |  | inactive: -3.82% |
| COc1ccccc1-c1cc(C(F)(F)F)nc(S(=O)(=O)CCCC(=O)NCc2ccc(F)cc2)n1 | inconclusive: 35.5 µM [inhibitor, single point] |  |
